ChEMBL document CHEMBL2218924, “A broad activity screen in support of a chemogenomic map for kinase signalling research and drug discovery” (Biochem J, 2013)
For part of these data: Most of the strong results are listed elsewhere, so they are rarer here than in the full data. How the calls were made is not given here. The list shows a part of the results, in another mix than the full data.

The chains behind the UniProt entries cited, without tags or fusion partners. Where a name states a change or a piece, a line headed by the entry shows the natural chain unless it says otherwise.
UniProt Q8TDX7: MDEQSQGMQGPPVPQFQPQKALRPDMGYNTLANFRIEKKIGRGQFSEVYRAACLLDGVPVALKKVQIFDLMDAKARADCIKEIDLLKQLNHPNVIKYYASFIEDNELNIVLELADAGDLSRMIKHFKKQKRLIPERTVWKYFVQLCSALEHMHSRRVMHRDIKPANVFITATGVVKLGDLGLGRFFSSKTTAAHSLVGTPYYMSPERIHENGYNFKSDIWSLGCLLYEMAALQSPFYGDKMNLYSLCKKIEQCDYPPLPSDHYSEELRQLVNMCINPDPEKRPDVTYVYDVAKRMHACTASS
UniProt Q9UBE8: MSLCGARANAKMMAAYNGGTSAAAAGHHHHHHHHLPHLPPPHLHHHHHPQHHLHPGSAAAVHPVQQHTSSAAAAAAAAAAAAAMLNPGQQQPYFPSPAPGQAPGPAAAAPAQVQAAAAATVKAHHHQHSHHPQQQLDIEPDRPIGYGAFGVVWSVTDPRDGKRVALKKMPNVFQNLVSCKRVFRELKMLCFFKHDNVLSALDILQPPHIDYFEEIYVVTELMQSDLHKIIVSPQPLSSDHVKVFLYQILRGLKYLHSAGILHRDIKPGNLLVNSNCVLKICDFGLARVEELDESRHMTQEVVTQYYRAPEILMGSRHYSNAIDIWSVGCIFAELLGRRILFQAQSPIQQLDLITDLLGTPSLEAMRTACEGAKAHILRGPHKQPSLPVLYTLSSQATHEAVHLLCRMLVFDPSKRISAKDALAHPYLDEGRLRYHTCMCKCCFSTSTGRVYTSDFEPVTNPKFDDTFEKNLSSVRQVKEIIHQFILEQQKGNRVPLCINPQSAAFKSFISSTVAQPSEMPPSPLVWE
UniProt Q9UM73: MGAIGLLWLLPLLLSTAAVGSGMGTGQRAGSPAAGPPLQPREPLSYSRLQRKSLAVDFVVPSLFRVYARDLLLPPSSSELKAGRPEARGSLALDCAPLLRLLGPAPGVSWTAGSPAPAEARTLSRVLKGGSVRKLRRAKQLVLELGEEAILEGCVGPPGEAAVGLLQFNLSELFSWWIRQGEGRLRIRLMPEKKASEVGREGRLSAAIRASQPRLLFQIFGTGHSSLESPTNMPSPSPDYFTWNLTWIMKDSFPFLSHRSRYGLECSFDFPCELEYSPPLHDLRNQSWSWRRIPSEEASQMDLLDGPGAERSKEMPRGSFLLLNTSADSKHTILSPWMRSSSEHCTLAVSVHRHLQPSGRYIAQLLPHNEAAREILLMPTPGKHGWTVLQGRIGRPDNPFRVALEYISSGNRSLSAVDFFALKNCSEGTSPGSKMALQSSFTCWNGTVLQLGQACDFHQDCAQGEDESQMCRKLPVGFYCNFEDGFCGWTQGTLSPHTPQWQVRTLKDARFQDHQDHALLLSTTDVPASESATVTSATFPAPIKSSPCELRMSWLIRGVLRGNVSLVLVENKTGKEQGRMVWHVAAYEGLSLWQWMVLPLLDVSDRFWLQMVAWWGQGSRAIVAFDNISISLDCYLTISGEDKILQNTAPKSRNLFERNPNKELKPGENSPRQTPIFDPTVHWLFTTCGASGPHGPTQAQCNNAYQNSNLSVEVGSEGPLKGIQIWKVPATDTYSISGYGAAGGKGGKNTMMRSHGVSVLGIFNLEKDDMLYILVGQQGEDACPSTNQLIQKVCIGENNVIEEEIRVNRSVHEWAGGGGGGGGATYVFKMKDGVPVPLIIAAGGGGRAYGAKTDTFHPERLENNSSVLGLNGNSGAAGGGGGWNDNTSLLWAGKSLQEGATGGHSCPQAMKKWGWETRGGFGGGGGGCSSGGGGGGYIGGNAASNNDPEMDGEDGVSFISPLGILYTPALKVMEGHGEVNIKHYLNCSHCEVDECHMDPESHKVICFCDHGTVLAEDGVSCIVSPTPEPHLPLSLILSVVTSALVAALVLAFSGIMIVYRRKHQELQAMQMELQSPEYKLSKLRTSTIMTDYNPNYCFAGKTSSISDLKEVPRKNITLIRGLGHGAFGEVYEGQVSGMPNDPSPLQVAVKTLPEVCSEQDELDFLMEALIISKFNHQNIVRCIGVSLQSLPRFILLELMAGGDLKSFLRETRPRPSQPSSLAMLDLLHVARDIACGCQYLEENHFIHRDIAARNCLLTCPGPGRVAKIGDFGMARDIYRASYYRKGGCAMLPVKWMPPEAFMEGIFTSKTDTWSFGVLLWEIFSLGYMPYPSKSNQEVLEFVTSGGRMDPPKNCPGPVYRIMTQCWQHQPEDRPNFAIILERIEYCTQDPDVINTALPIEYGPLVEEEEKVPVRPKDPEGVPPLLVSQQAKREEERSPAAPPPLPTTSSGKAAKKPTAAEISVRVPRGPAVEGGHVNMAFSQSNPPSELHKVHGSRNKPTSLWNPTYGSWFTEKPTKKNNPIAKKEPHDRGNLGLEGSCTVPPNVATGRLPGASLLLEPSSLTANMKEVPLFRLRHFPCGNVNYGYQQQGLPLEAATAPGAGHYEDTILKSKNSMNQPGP
UniProt Q13131: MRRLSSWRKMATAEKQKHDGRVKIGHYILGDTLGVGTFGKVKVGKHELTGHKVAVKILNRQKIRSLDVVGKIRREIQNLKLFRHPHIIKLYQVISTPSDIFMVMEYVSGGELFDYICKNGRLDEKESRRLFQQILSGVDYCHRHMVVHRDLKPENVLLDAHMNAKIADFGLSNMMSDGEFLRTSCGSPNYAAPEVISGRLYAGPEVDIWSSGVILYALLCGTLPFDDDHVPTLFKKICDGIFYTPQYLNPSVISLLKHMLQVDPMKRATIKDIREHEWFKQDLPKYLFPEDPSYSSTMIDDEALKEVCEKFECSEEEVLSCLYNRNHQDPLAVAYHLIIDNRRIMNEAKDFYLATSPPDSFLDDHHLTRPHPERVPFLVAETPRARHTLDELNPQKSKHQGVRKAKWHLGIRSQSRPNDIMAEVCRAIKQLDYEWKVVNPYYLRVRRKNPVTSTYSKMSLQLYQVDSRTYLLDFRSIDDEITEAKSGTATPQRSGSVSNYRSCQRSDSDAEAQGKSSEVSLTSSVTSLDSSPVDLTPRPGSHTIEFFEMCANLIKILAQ
UniProt P54646: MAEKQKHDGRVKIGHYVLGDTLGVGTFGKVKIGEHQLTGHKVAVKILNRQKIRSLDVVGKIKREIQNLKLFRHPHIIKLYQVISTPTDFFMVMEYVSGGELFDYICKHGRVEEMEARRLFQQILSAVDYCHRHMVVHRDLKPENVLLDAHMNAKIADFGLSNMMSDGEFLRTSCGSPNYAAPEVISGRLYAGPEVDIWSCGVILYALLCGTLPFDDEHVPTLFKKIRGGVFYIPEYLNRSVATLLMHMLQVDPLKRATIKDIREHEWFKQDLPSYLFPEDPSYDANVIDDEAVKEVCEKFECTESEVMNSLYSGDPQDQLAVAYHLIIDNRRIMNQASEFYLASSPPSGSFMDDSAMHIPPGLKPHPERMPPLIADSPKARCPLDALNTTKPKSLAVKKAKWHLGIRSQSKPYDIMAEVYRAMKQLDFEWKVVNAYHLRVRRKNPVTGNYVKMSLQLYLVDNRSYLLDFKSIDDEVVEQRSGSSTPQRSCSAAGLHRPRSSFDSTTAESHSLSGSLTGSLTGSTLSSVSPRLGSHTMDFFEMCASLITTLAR
UniProt Q9UGJ0: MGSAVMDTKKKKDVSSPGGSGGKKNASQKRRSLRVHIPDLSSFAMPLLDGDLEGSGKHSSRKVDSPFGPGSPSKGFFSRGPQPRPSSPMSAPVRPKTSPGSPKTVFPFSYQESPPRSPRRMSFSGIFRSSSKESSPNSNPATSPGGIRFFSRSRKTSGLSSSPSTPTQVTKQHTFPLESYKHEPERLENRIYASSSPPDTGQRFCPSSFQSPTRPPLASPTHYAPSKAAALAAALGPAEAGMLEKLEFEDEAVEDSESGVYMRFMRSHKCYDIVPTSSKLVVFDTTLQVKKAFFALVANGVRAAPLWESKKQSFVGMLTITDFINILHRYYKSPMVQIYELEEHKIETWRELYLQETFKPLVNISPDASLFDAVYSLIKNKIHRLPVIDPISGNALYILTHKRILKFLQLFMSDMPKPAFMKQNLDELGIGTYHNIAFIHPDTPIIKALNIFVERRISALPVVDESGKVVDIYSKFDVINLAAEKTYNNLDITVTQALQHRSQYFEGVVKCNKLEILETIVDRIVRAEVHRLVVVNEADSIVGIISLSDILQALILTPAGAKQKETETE
UniProt P16234: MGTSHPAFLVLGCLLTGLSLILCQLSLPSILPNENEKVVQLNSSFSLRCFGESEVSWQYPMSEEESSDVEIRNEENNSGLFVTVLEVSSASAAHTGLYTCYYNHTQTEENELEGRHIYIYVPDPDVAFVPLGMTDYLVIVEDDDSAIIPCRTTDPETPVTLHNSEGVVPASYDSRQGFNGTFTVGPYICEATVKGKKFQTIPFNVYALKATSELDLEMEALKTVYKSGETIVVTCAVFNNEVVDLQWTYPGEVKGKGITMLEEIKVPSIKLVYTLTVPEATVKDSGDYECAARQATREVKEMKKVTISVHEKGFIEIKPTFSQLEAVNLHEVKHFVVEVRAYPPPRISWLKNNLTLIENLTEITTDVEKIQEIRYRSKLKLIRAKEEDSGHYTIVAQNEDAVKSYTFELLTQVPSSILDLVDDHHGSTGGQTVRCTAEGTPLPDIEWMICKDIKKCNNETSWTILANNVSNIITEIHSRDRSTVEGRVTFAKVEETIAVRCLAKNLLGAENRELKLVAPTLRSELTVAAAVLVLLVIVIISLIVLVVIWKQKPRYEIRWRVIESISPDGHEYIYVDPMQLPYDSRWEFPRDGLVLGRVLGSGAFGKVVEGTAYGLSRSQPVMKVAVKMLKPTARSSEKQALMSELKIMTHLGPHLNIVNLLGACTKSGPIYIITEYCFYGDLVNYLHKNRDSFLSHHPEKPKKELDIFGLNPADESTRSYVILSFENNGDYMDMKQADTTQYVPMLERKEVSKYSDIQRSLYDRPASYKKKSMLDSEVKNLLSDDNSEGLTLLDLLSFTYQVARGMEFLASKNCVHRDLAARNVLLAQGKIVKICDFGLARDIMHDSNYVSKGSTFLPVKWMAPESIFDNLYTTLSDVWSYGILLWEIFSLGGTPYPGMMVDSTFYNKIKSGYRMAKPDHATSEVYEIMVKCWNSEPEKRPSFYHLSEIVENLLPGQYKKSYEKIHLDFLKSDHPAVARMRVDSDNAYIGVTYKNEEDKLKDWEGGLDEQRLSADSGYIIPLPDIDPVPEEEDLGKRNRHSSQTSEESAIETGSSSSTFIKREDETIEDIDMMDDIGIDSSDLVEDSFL
UniProt O15530: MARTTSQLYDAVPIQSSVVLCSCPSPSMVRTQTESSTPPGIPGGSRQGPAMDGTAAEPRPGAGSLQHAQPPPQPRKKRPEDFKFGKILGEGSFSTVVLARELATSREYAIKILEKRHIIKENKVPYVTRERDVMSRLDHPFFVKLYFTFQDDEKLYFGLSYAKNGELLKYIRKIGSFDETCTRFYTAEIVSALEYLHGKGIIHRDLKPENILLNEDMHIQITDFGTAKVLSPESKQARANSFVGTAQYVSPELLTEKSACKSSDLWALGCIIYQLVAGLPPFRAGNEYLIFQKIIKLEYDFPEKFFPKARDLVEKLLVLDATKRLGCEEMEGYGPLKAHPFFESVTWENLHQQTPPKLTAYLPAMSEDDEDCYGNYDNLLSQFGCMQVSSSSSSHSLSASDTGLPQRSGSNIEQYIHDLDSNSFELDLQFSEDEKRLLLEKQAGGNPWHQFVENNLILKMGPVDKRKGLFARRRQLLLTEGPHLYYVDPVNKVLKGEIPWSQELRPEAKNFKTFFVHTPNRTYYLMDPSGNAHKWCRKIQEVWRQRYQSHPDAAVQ
UniProt P05771, whole entry, looked up: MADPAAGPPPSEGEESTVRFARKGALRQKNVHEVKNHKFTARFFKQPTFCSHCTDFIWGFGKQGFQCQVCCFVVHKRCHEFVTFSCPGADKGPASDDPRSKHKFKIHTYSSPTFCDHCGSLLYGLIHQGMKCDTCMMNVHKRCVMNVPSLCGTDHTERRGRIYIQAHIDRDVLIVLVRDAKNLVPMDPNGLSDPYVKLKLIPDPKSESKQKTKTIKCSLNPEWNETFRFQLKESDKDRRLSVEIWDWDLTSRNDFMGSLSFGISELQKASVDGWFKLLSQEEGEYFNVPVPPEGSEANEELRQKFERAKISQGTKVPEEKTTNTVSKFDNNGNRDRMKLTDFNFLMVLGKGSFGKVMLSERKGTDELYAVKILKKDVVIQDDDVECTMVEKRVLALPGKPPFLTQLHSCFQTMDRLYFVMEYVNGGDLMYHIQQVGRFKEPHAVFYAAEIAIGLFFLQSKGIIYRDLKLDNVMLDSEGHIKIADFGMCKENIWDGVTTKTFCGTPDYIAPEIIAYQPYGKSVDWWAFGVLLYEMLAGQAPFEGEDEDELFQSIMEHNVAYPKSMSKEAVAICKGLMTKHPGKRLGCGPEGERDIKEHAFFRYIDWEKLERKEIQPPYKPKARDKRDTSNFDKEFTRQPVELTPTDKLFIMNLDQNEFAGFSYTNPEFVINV

Tests used:
[1] = target: Serine/threonine-protein kinase mTOR (Homo sapiens) (UniProt P42345); settings: at 1 µM
[2] = target: Serine/threonine-protein kinase mTOR (Homo sapiens) (UniProt P42345); settings: at 10 µM
[3] = target: Ribosomal protein S6 kinase beta-1 (Homo sapiens) (UniProt P23443); settings: at 1 µM
[4] = target: Ribosomal protein S6 kinase beta-1 (Homo sapiens) (UniProt P23443); settings: at 10 µM
[5] = target: Serine/threonine-protein kinase Nek6 (Homo sapiens) (UniProt Q9HC98); settings: at 1 µM
[6] = target: Serine/threonine-protein kinase Nek6 (Homo sapiens) (UniProt Q9HC98); settings: at 10 µM
[7] = target: Serine/threonine-protein kinase Nek7 (Homo sapiens) (UniProt Q8TDX7); settings: at 1 µM
[8] = target: Serine/threonine-protein kinase Nek7 (Homo sapiens) (UniProt Q8TDX7); settings: at 10 µM
[9] = target: Serine/threonine-protein kinase NLK (Homo sapiens) (UniProt Q9UBE8); settings: at 1 µM
[10] = target: Serine/threonine-protein kinase NLK (Homo sapiens) (UniProt Q9UBE8); settings: at 10 µM
[11] = target: Serine/threonine-protein kinase PAK 2 (Homo sapiens) (UniProt Q13177); settings: at 1 µM
[12] = target: Serine/threonine-protein kinase PAK 2 (Homo sapiens) (UniProt Q13177); settings: at 10 µM
[13] = target: Serine/threonine-protein kinase PAK 4 (Homo sapiens) (UniProt O96013); settings: at 1 µM
[14] = target: Serine/threonine-protein kinase PAK 4 (Homo sapiens) (UniProt O96013); settings: at 10 µM
[15] = target: Serine/threonine-protein kinase PAK 5 (Homo sapiens) (UniProt Q9P286); settings: at 1 µM
[16] = target: Serine/threonine-protein kinase PAK 5 (Homo sapiens) (UniProt Q9P286); settings: at 10 µM
[17] = target: Serine/threonine-protein kinase PAK 6 (Homo sapiens) (UniProt Q9NQU5); settings: at 1 µM
[18] = target: Serine/threonine-protein kinase PAK 6 (Homo sapiens) (UniProt Q9NQU5); settings: at 10 µM
[19] = target: PAS domain-containing serine/threonine-protein kinase (Homo sapiens) (UniProt Q96RG2); settings: at 1 µM
[20] = target: PAS domain-containing serine/threonine-protein kinase (Homo sapiens) (UniProt Q96RG2); settings: at 10 µM
[21] = target: Activated CDC42 kinase 1 (Homo sapiens) (UniProt Q07912); settings: at 1 µM
[22] = target: Activated CDC42 kinase 1 (Homo sapiens) (UniProt Q07912); settings: at 10 µM
[23] = target: ALK tyrosine kinase receptor (Homo sapiens) (UniProt Q9UM73); settings: at 1 µM
[24] = target: ALK tyrosine kinase receptor (Homo sapiens) (UniProt Q9UM73); settings: at 10 µM
[25] = target: Activin receptor type-1B (Homo sapiens) (UniProt P36896); settings: at 1 µM
[26] = target: Activin receptor type-1B (Homo sapiens) (UniProt P36896); settings: at 10 µM
[27] = target: T1, AMP-activated protein kinase (AMPK) alpha-1/beta-1/gamma-1 (Homo sapiens) (UniProt P54619+Q9Y478+Q13131); settings: at 1 µM
[28] = target: T1, AMP-activated protein kinase (AMPK) alpha-1/beta-1/gamma-1 (Homo sapiens); settings: at 10 µM
[29] = target: T2, AMP-activated protein kinase, AMPK (Homo sapiens) (UniProt P54646+O43741+P54619+Q9UGJ0+Q9Y478+Q13131+Q9UGI9); settings: at 1 µM
[30] = target: T2, AMP-activated protein kinase, AMPK (Homo sapiens); settings: at 10 µM
[31] = target: NUAK family SNF1-like kinase 1 (Homo sapiens) (UniProt O60285); settings: at 1 µM
[32] = target: NUAK family SNF1-like kinase 1 (Homo sapiens) (UniProt O60285); settings: at 10 µM
[33] = target: Mitogen-activated protein kinase kinase kinase 5 (Homo sapiens) (UniProt Q99683); settings: at 1 µM
[34] = target: Platelet-derived growth factor receptor alpha (Homo sapiens) (UniProt P16234); settings: at 1 µM
[35] = target: Platelet-derived growth factor receptor alpha (Homo sapiens) (UniProt P16234); settings: at 10 µM
[36] = target: Platelet-derived growth factor receptor beta (Homo sapiens) (UniProt P09619); settings: at 1 µM
[37] = target: Platelet-derived growth factor receptor beta (Homo sapiens) (UniProt P09619); settings: at 10 µM
[38] = target: 3-phosphoinositide-dependent protein kinase 1 (Homo sapiens) (UniProt O15530); settings: at 1 µM
[39] = target: 3-phosphoinositide-dependent protein kinase 1 (Homo sapiens) (UniProt O15530); settings: at 10 µM
[40] = target: cAMP-dependent protein kinase catalytic subunit alpha (Homo sapiens) (UniProt P17612); settings: at 1 µM
[41] = target: cAMP-dependent protein kinase catalytic subunit alpha (Homo sapiens) (UniProt P17612); settings: at 10 µM
[42] = target: RAC-alpha serine/threonine-protein kinase (Homo sapiens) (UniProt P31749); settings: at 1 µM
[43] = target: RAC-alpha serine/threonine-protein kinase (Homo sapiens) (UniProt P31749); settings: at 10 µM
[44] = target: RAC-gamma serine/threonine-protein kinase (Homo sapiens) (UniProt Q9Y243); settings: at 1 µM
[45] = target: RAC-gamma serine/threonine-protein kinase (Homo sapiens) (UniProt Q9Y243); settings: at 10 µM
[46] = target: Protein kinase C alpha type (Homo sapiens) (UniProt P17252); settings: at 1 µM
[47] = target: Protein kinase C alpha type (Homo sapiens) (UniProt P17252); settings: at 10 µM
[48] = target: Protein kinase C beta type (Homo sapiens) (UniProt P05771); settings: at 1 µM
[49] = target: Protein kinase C beta type (Homo sapiens) (UniProt P05771); settings: at 10 µM
[50] = target: Protein kinase C beta type (Homo sapiens) (UniProt P05771); settings: at 1 µM; remark: listed apart in the source
[51] = target: Protein kinase C beta type (Homo sapiens) (UniProt P05771); settings: at 10 µM; remark: listed apart in the source
[52] = target: Protein kinase C gamma type (Homo sapiens) (UniProt P05129); settings: at 1 µM
[53] = target: Protein kinase C gamma type (Homo sapiens) (UniProt P05129); settings: at 10 µM
[54] = target: Protein kinase C delta type (Homo sapiens) (UniProt Q05655); settings: at 1 µM
[55] = target: Protein kinase C delta type (Homo sapiens) (UniProt Q05655); settings: at 10 µM
[56] = target: Protein kinase C epsilon type (Homo sapiens) (UniProt Q02156); settings: at 1 µM
[57] = target: Protein kinase C epsilon type (Homo sapiens) (UniProt Q02156); settings: at 10 µM

Question: Which results are given for `O=C1Nc2ccc(-c3cccnc3)cc2/C1=C\c1ccc[nH]1`?
Answer: residual activity [1]: 76%; residual activity [2]: 105%; residual activity [3]: 8%; residual activity [4]: 2%; residual activity [5]: inactive: 90%; residual activity [6]: 108%; residual activity [7]: inactive: 101%; residual activity [8]: inactive: 99%; residual activity [9]: 75%; residual activity [10]: 40%; residual activity [11]: 86%; residual activity [12]: 37%; residual activity [13]: 68%; residual activity [14]: 23%; residual activity [15]: 66%; residual activity [16]: 22%; residual activity [17]: 64%; residual activity [18]: 18%; residual activity [19]: 40%; residual activity [20]: -1%; residual activity [21]: 57%; residual activity [22]: 20%; residual activity [23]: 63%; residual activity [24]: 26%; residual activity [25]: 64%; residual activity [26]: 5%; residual activity [27]: 6%; residual activity [28]: 1%; residual activity [29]: 5%; residual activity [30]: 0%; residual activity [31]: 10%; residual activity [32]: 6%; residual activity [33]: 61%; residual activity [34]: 93%; residual activity [35]: 41%; residual activity [36]: 71%; residual activity [37]: 24%; residual activity [38]: 6%; residual activity [39]: 2%; residual activity [40]: 61%; residual activity [41]: 26%; residual activity [42]: 96%; residual activity [43]: 109%; residual activity [44]: 68%; residual activity [45]: 20%; residual activity [46]: 87%; residual activity [47]: 45%; residual activity [48]: 93%; residual activity [49]: 49%; residual activity [50]: 83%; residual activity [51]: 50%; residual activity [52]: 67%; residual activity [53]: 16%; residual activity [54]: 54%; residual activity [55]: 11%; residual activity [56]: 69%; residual activity [57]: 53%
